For 67 sequences, z-score results are on record in PubChem BioAssay AID1347423 (Functional Genomics Laboratory (NCATS/FGL), 2020).

Out of some 52,000 sequences screened, about 210 (0.4%) were called active.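 The calls were made as follows: active = gene whose silencing raises cell survival under the drug, median off-target-corrected z-score across its silencing RNAs 2 or more; inactive = the rest.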 The list shows a part of the results.

A short description of the assay: Resistance to Poly (ADP-Ribose) Polymerase inhibitor: Gene Identification via Genome-wide siRNA Screen. To be noted: mouse BRCA2 R2336H ES cells, olaparib, CellTiter-Glo viability; active compounds read high. Put shortly:
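Genome-wide siRNA screen (3 siRNAs/gene, 20 nM) in mouse ES cells carrying hypomorphic BRCA2 R2336H; olaparib 500 nM added 48 h post-transfection, CellTiter-Glo viability 72 h later. Normalized to plate-median negative control; MAD z-scores, gene median, seed-adjusted.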
(ATP-based viability assays read luminescence as a measure of living cells.)
GGAUCCACAGAGAAACCCUTT against Gfi1b: the z-score is inactive: 0.954.
Turning to CCAUCGUCCAAAGUACAUGTT against Rbp4, the z-score was inactive: 0.453.
For the sequence CCUGAGUAACAUUGCCGUGTT against Mgat1, the z-score was inactive: -0.251.
Consider “GGACAAGAACUUAGUGAUGTT against 1500005A01Rik”, for which the z-score was inactive: 1.02.
For GGAUGCUGAGCUUUCUGACTT against Fchsd1, the z-score is inactive: 0.259.
In the case of GGCUUUCUCAUAUAACUCCTT against Mest, the z-score is inactive: -0.367.
Regarding GCAGUAGCCGGAAGAUAACTT against Itln2, the z-score was inactive: 0.684.
With CGGAUUAGUAUAAAUGUAGTT against Prss16 the figure was inactive: -1.01.
As for CCUCUCACACACCAUAACATT against Polm, the z-score was inactive: 0.584.
With GAAAACCAGCAUAAAGUCUTT against Mlr1 the figure was inactive: 2.7; with CCUAACCAUUGCUUAUAUATT against Stat1, inactive: 1.26.
Take CCUUUUCCAUGCCUACUCCTT against Bag3: the z-score was inactive: -0.0599.
With GGAUGUUGUUUAUCGAGGATT against Surb7, the z-score is inactive: 1.28.
With “GGAAUUCUUGAAGAUUCCCTT against C920001D21Rik” the figure was inactive: 0.398; with CCUACGUGAUAUCCUUUUATT against Vrk1, inactive: 0.149.
Consider GGUUCCAUGUUCAGAAUUUTT against Dibd1, for which the z-score is inactive: 1.21.
In the case of GGCAGGAGAGGCAUCUUUUTT against Arhgap20, the z-score was inactive: 0.596.
As for GGACCCUGAACAGACAACGTT against Asna1, the z-score is inactive: 1.04.
With GGAAUCCUUGGACCUGAGGTT against Tnni3 the figure was inactive: -1.08.
As for “GGAGAACACUUUAAUGCUGTT against 9230106D23Rik”, the z-score was inactive: 0.667.
Turning to CCAGACAGAAGGGUUAGCUTT against Mrps36, the z-score was inactive: -2.45.
With GGCUGGAACCCUAAUUUCUTT against Tpo the figure was inactive: -0.559; with GCGAGAUCUGUCCUUACAGTT against Ildr1, inactive: 0.234.
As to GCAAUUAAUAGAAUUAGCCTT against Slc8a1, the z-score was inactive: 0.233.
With GGAAGCCUGAAACUCAGCATT against Srpk1 the figure was inactive: -0.676.
For GCUAUAUGACAACCUCAGCTT against Slamf8, the z-score was inactive: -0.289.
As to CCAUUCUCAGGCAAAUACUTT against AL024069, the z-score was inactive: -0.944.
With GGCUUCACAAGGACCUUUGTT against BC024139 the figure was inactive: -1.96; with GCAUGUUUUACAGUGUUCATT against Lgr7, inactive: 0.314.
With GGCGGAGGAUCUUACUAUCTT against Foxf1a the figure was inactive: 0.486.
With GGCCAUGGUCAUGGACAUGTT against Itpr3 the figure was inactive: 0.814.
Turning to GGCGGUUAAACCACAGCGUTT against Snapap, the z-score was inactive: 0.387.
On to “GGAGGAGCAUCCUUCAACUTT against A230020G22Rik”, for which the z-score is inactive: 2.82.
With GGGCUCUUUAUCCUUUCCUTT against Cer1, the z-score was inactive: -0.322.
With “GGAGGAACAUAUGCUCAGATT against 1110031B11Rik”, the z-score was inactive: -3.44.
With GGAGGAAAGAAUCGAUUUATT against Slc5a4a the figure was inactive: -0.139.
For the sequence GCUGAUCAAGGACUAUCGGTT against Ywhaq, the z-score was inactive: -0.347.
With ACAACAUGAUUGUCGUGGATT against Ugt1a6 the figure was inactive: 0.282; with GGAAAAUUGGAACAAUCCATT against Sval2, inactive: 0.272; with CUCAGUUCUUCUUCUUUUCTT against Olfr12, inactive: 0.475.
With CCAAAGAUGCUGGUAGAUUTT against Olfr1140 the figure was inactive: -0.721.
With “GGUAUUUCCGGAUCUUCAUTT against 9130011J15Rik”, the z-score is inactive: -1.32.
With GGAGUGUGAUCAAGUUCAUTT against Eya4, the z-score was inactive: 0.648.
Turning to GCAGUGUUUUACGACUUGATT against BC030477, the z-score was inactive: 1.08.
With “GGAACCGUAGCUUGUCUGCTT against 1110029E03Rik”, the z-score was inactive: 0.223.
For CCUCGUAGGGCCUAUGGUATT against Pscd4, the z-score was inactive: 0.776.
Regarding GGCCCAAACUUACAGCUGUTT against Ptges2, the z-score was inactive: 0.594.
In the case of “GCAUUCAUCAGGGUUGAUUTT against 2310040A13Rik”, the z-score was inactive: -0.137.
Take GCUACCUAAUGAAGAGGCCTT against Rgnef: the z-score is inactive: 0.256.
On to CCUACUUGACGAAGGCCUATT against Ndufb10, for which the z-score is inactive: 0.0845.
Consider GGAAAAGAAGAGGAAAUUCTT against Smarce1, for which the z-score is inactive: -1.01.
With GGGUCUCCAAUCCCUCAGUTT against Kirl2 the figure was inactive: -0.351; with GAACGGGCAUAUGUUCAACTT against Mgst3, inactive: -0.404.
In the case of GGCAUUCCUACAGUUCAGATT against Mrpl46, the z-score was inactive: 1.18.
Regarding “GGAGCCUGAAUGCUGUAUUTT against 1700063I17Rik”, the z-score is inactive: 0.415.
Regarding “GGGCAAUACUAAAUAAAAGTT against 4933439F18Rik”, the z-score was inactive: 0.225.
With GGAGAAGGUAGUUCUGAAATT against Slc7a11 the figure was inactive: -1.61; with “CCUCCACUUGCCAUAUUGUTT against 5730559C18Rik”, inactive: -0.99; with GGCCGACAAGCGAUCAAAATT against AU040829, inactive: -0.237.
With CCUUUUCACAGAGAGCUGCTT against Tex264, the z-score is inactive: -1.1.
Regarding CCUAAUGUACACUAACUAUTT against Dhrs10, the z-score was inactive: 0.688.
Regarding GGUAGCAAAUCCAACAAGATT against Slamf1, the z-score was inactive: -0.727.
For the sequence GCAAGACCCAAGAGUUACATT against Soat2, the z-score is inactive: 0.14.
For GGAGAAGACCUGAUUCCAGTT against Zfx, the z-score was inactive: -1.22.
With GGAAAAAAAGGAGUGGGCATT against Klra6, the z-score was inactive: -0.0179.
With GGAGUUUUGGGUGAUGAUATT against Olfr974 the figure was inactive: -2.33.
Turning to CCGUAUCGAUGUGACAUAUTT against Zfp94, the z-score was inactive: 1.5.
